The target of one assay is T1, GFP-Arx (Drosophila) (UniProt Q8SWX0).
T1 sequence: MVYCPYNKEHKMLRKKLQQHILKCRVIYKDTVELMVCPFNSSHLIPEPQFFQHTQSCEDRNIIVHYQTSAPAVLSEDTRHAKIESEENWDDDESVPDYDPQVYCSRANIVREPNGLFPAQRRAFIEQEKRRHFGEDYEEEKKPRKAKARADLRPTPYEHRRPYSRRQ
The assay is described as follows: co-IP.

The target of a further assay is T2, GFP-Piwi (Drosophila) (UniProt Q9VKM1).
T2 sequence: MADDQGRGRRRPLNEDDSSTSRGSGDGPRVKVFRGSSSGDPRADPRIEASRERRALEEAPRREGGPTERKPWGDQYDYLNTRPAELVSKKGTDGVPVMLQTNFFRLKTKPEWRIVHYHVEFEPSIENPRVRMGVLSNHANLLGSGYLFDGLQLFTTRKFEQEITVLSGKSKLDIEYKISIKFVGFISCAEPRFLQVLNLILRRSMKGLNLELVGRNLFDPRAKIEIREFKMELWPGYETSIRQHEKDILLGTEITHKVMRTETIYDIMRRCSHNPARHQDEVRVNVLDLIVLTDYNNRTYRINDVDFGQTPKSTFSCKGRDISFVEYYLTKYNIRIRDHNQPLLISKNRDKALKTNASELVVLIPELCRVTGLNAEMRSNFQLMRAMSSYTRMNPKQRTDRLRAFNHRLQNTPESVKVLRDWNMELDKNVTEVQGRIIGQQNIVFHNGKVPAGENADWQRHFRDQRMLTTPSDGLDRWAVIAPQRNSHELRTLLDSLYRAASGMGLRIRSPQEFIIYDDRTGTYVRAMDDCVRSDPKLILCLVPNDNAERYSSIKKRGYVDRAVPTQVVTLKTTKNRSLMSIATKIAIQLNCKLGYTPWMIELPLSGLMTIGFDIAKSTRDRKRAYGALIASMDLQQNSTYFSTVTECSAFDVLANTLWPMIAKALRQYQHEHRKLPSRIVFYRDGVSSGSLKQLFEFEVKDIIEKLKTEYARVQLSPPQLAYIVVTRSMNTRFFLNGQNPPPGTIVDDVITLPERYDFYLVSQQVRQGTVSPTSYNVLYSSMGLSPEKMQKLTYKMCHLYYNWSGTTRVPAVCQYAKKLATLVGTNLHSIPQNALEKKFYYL
The assay can be described thus: co-IP.

Assay [1] deals with T3, FLAG-tagged Arx (Drosophila) (UniProt Q8SWX0).
T3 sequence: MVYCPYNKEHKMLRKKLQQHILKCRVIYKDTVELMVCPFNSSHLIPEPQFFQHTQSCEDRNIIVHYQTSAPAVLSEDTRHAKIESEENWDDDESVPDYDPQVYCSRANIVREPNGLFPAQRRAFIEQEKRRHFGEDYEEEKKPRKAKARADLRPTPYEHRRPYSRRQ
The assay can be described thus: co-IP.

The target of assay [2] is T4, GST-SUMO (wild type) (Drosophila) (UniProt O97102).
T4 sequence: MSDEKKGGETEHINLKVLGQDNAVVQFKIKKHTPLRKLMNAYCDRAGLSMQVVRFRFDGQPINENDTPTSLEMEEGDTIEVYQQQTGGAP
The assay is described as follows: pull-down.

For assay [3], the target named is GFP-Su(var)2-10 (D. melanogaster). The assay can be described thus: co-IP.
Assay [4] deals with GFP-tagged truncated Wde including SIM 7 (aa1058-1310) (Drosophila). The assay is described as follows: pull-down.
Assay [5] addresses GFP-tagged truncated Wde including predicted SIM-s 3 to 6 (aa385-655) (Drosophila). The assay is described as follows: pull-down.

Results are given in words; binding and its absence hold for the method and conditions named. Binding calls can cover weak binding; strength is not graded here. Where a sequence is shown, tags or fusion partners need not be part of it. In cells and extracts the contact can be indirect.

On to FLAG-Su(var)2-10 (D. melanogaster), for which the binding entry with GFP-Arx (Drosophila) and in the assay with GFP-Piwi (Drosophila) was “binds” in each case.

As to GFP-Su(var)2-10 (D. melanogaster), the binding result in assay [1] and in assay [2] was “binds” each time.

For the molecule His-Su(var)2-10 (D. melanogaster), the binding entry in assay [2] is on record as “binds”.

B1: FLAG-tagged Piwi (protein, UniProt Q9VKM1 1-843)
chain: MADDQGRGRRRPLNEDDSSTSRGSGDGPRVKVFRGSSSGDPRADPRIEASRERRALEEAPRREGGPTERKPWGDQYDYLNTRPAELVSKKGTDGVPVMLQTNFFRLKTKPEWRIVHYHVEFEPSIENPRVRMGVLSNHANLLGSGYLFDGLQLFTTRKFEQEITVLSGKSKLDIEYKISIKFVGFISCAEPRFLQVLNLILRRSMKGLNLELVGRNLFDPRAKIEIREFKMELWPGYETSIRQHEKDILLGTEITHKVMRTETIYDIMRRCSHNPARHQDEVRVNVLDLIVLTDYNNRTYRINDVDFGQTPKSTFSCKGRDISFVEYYLTKYNIRIRDHNQPLLISKNRDKALKTNASELVVLIPELCRVTGLNAEMRSNFQLMRAMSSYTRMNPKQRTDRLRAFNHRLQNTPESVKVLRDWNMELDKNVTEVQGRIIGQQNIVFHNGKVPAGENADWQRHFRDQRMLTTPSDGLDRWAVIAPQRNSHELRTLLDSLYRAASGMGLRIRSPQEFIIYDDRTGTYVRAMDDCVRSDPKLILCLVPNDNAERYSSIKKRGYVDRAVPTQVVTLKTTKNRSLMSIATKIAIQLNCKLGYTPWMIELPLSGLMTIGFDIAKSTRDRKRAYGALIASMDLQQNSTYFSTVTECSAFDVLANTLWPMIAKALRQYQHEHRKLPSRIVFYRDGVSSGSLKQLFEFEVKDIIEKLKTEYARVQLSPPQLAYIVVTRSMNTRFFLNGQNPPPGTIVDDVITLPERYDFYLVSQQVRQGTVSPTSYNVLYSSMGLSPEKMQKLTYKMCHLYYNWSGTTRVPAVCQYAKKLATLVGTNLHSIPQNALEKKFYYL
Take B1: the binding entry in assay [3] is given as “binds”.

B2: GST-SUMO (wild type) (protein, UniProt O97102 1-90)
chain: MSDEKKGGETEHINLKVLGQDNAVVQFKIKKHTPLRKLMNAYCDRAGLSMQVVRFRFDGQPINENDTPTSLEMEEGDTIEVYQQQTGGAP
Regarding B2, the binding result in assay [4] and in assay [5] was “binds” throughout.

B3: GST-SUMO (QFI>AAA) (protein, UniProt O97102 1-90)
chain: MSDEKKGGETEHINLKVLGQDNAVVAAKAKKHTPLRKLMNAYCDRAGLSMQVVRFRFDGQPINENDTPTSLEMEEGDTIEVYQQQTGGAP
B3: the binding entry in assay [4] and in assay [5] was “no binding (tested: 2-3 μg GST-SUMO)” throughout.

Source of the values: article doi:10.1101/533091.
